This note sets out measurements from PMC4838336.

Sequences of proteins named here, by UniProt entry; tags and fusion partners are left off.
UniProt Q96KQ7: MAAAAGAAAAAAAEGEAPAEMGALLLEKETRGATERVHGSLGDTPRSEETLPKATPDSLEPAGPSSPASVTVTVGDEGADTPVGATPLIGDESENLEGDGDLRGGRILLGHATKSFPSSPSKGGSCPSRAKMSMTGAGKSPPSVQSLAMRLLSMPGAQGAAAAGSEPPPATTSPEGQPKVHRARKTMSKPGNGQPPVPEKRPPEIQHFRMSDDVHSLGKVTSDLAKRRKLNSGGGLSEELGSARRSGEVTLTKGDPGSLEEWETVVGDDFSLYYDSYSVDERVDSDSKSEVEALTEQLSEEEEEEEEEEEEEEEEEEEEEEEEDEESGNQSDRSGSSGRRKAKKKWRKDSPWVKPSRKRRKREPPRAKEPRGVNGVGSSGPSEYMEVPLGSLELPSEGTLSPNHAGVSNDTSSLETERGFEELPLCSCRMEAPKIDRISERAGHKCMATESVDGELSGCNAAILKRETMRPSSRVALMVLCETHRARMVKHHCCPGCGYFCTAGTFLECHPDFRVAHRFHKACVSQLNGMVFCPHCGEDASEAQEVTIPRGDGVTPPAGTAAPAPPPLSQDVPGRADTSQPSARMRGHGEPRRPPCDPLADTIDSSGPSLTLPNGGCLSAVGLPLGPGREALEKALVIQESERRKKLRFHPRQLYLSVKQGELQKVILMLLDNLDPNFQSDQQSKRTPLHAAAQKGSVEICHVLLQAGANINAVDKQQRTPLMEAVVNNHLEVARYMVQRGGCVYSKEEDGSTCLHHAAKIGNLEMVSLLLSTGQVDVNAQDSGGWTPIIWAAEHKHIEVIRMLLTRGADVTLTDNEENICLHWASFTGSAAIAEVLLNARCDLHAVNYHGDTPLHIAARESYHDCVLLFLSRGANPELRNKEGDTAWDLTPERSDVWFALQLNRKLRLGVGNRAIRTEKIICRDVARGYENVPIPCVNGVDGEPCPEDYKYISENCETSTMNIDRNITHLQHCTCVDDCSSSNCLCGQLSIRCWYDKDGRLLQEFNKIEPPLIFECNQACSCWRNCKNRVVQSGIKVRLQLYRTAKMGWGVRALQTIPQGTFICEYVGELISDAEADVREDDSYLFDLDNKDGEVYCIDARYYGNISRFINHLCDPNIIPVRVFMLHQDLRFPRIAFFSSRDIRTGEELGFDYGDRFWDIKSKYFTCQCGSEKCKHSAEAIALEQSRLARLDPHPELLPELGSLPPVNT

No constants are given. Whether binding was seen depends on the method and setting. In cells and extracts the contact can be indirect. Some entries that bind do so weakly or less than the wild type.

Test [1] deals with lamin B1 (human (endogenous in Jurkat)) (UniProt P20700). Put plainly: condition: only cells cultured in suspension (no adhesion to VCAM1); co-IP; complexes precipitated with anti-lamin B1 antibody from lysates of Jurkat cells cultured in suspension for 24 h; probed by Western blotting.
Test [2] shares this target. In words: co-IP; complexes precipitated with anti-lamin B1 antibody from lysates of Jurkat cells cultured on VCAM1 for 24 h; probed by Western blotting.
In test [3] the target is T1, lamin B1 (human (endogenous in Jurkat)), P20700.
T1 chain: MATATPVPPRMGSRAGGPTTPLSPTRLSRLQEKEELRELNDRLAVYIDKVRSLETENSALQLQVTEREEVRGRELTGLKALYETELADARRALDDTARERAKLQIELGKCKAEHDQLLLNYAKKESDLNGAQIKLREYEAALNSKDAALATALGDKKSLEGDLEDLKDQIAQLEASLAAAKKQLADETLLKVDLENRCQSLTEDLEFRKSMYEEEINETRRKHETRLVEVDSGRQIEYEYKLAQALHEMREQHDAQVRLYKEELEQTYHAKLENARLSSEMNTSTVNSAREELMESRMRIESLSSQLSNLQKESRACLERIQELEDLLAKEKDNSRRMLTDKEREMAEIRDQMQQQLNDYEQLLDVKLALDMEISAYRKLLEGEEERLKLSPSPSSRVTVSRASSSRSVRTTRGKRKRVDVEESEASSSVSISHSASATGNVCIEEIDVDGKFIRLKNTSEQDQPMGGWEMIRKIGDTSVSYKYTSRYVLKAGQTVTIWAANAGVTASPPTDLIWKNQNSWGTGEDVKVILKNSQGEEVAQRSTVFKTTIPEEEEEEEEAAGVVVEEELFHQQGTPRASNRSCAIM
Described as above. Conditions: remark: other sources report otherwise.

On to “histone methyltransferase G9a (from UniProt Q96KQ7 1-1210) (enzyme)”, for which the values for the binding result in test [1] and in test [2] were “no binding” and “binds”, respectively.

B1: SUV39H1, O43463 1-412 (enzyme)
chain: MAENLKGCSVCCKSSWNQLQDLCRLAKLSCPALGISKRNLYDFEVEYLCDYKKIREQEYYLVKWRGYPDSESTWEPRQNLKCVRILKQFHKDLERELLRRHHRSKTPRHLDPSLANYLVQKAKQRRALRRWEQELNAKRSHLGRITVENEVDLDGPPRAFVYINEYRVGEGITLNQVAVGCECQDCLWAPTGGCCPGASLHKFAYNDQGQVRLRAGLPIYECNSRCRCGYDCPNRVVQKGIRYDLCIFRTDDGRGWGVRTLEKIRKNSFVMEYVGEIITSEEAERRGQIYDRQGATYLFDLDYVEDVYTVDAAYYGNISHFVNHSCDPNLQVYNVFIDNLDERLPRIAFFATRTIRAGEELTFDYNMQVDPVDMESTRMDSNFGLAGLPGSPKKRVRIECKCGTESCRKYLF
B1: the binding entry in test [3] is recorded as “no binding”.
